According to article PMC5179498:
Results are given in words; binding and its absence hold for the method and conditions named. For some of these results: In cells and extracts the contact can be indirect. Some results given as binding are weak or reduced against the parent protein; the word gives no strength.

Sequences of proteins named here, by UniProt entry; tags and fusion partners are left off.
UniProt O60566: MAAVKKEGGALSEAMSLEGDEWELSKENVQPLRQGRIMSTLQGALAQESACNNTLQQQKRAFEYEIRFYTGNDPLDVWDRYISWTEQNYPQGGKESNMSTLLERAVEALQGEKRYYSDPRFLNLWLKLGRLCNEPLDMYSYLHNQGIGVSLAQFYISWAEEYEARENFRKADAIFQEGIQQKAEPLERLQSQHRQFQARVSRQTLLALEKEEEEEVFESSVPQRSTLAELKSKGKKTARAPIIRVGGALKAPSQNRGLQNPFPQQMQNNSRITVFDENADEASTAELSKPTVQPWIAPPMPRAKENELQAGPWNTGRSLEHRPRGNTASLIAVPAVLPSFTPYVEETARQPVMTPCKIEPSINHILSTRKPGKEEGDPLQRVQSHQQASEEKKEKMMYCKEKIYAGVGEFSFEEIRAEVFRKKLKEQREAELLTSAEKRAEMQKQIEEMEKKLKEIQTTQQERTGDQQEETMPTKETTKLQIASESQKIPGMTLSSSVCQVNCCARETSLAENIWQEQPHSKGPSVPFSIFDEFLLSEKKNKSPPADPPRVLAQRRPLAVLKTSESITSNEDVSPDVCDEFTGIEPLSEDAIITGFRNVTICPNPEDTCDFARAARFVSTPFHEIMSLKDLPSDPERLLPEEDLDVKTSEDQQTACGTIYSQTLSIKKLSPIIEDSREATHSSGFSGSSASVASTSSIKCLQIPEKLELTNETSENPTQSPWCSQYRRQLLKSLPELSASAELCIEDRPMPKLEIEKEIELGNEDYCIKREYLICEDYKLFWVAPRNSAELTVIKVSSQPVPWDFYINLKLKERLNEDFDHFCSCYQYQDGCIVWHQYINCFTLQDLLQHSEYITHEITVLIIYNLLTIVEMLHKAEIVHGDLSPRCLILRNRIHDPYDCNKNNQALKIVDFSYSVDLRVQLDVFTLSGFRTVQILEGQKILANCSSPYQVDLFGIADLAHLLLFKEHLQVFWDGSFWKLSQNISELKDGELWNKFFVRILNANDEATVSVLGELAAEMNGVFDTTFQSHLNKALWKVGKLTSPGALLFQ
UniProt O43684: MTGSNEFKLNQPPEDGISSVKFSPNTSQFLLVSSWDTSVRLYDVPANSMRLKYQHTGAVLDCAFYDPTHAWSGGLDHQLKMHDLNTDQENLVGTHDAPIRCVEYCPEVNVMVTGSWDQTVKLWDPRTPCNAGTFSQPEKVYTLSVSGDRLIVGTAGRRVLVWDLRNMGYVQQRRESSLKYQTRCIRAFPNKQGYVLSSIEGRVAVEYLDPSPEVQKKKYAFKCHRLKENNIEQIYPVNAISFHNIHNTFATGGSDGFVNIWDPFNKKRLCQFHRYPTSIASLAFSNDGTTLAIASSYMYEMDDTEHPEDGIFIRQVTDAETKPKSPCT
UniProt Q12834: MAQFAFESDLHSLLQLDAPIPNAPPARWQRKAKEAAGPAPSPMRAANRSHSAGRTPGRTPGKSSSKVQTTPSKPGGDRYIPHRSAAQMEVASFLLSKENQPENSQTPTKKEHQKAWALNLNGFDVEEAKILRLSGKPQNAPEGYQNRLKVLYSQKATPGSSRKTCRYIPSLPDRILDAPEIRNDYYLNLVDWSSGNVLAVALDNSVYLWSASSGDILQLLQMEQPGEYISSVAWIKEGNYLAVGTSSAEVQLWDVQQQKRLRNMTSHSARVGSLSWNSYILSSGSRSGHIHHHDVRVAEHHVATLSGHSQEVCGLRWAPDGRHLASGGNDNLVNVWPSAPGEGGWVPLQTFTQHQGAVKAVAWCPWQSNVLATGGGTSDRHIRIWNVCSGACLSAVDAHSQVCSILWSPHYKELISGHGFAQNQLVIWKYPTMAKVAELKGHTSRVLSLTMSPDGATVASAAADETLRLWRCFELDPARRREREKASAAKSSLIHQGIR

Experiments:
[1] = biological target: streptavidin binding protein (SBP)-tagged BubR1, wild-type (human) (UniProt O60566); test: tandem affinity co-purification; Cdc20, SBP-BubR1 (WT or mutants), His6-Mad2 and Bub3 co-expressed in Sf9 cells (MultiBac); biotin elution from Strep agarose beads followed by Ni-NTA beads; silver staining after SDS-PAGE
[2] = biological target: T1, BubR1 ABBA^528 peptide, wild-type 528, biotin-conjugated (human); test: pull-down; biotinylated peptides coupled to streptavidin Ultralink beads; cleared extract of metaphase HeLa cells in PBS plus 0.5% Triton X-100 and protease inhibitors; 1 hr at 4°C; immunoblot on a LI-COR Odyssey scanner; only the target purified
T1 sequence (peptide, biotin (position not stated)): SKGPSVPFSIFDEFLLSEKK

[3] = biological target: T2, BubR1 ABBA^340 peptide, wild-type 340, biotin-conjugated (human); test: as above
T2 sequence (peptide, biotin (position not stated)): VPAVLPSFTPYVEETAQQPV

[4] = biological target: T3, BubR1 ABBA^272 peptide, wild-type 272, biotin-conjugated (human); test: as above
T3 sequence (peptide, biotin (position not stated)): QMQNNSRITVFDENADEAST

Substance	binding [1]	binding [2]	binding [3]	binding [4]
Bub3 (recombinant, in rMCC) (from UniProt O43684 1-328)	binds			
Cdc20 (endogenous, metaphase HeLa cell extract) (from UniProt Q12834 1-499)		binds	binds weakly	binds weakly
